Structures can show the parent of a compound that is named as a salt. ± gives the standard deviation of the averaged measurements. Some of the results follow. Values are raw readings; no control value is given beside them.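 HeLa cells imaged for ribosome-assembly readouts (ENP1 staining with or without export block, or inducible tagged ribosomal protein reporters); machine learning classified each cell's signal location against solvent (DMSO) controls. Hits exceeded the DMSO false-positive mean by five standard deviations, then were visually confirmed; three biological replicates.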
What was measured:
[1] = tested on: HeLa K (ENP1 immunofluorescence, +LMB); test: fraction of cells with nucleolar or nucleolar/nucleoplasmic ENP1 signal (MainHitrate); higher = more cells with nucleolar/nuclear readout signal (for ENP1 -LMB: less RNAPI inhibition; for +LMB ENP1 and RP reporters: stronger nuclear/nucleolar retention, i.e. ribosome biogenesis defect); settings: concentration: 1 µM; treatment time: 6 h; ENP1 +LMB; leptomycin B: 20 nM, last 1.5 h
[2] = tested on: HeLa K (ENP1 immunofluorescence, no LMB); test: as above; settings: concentration: 1 µM; treatment time: 6 h; ENP1 -LMB; leptomycin B: none
[3] = tested on: HeLa RPS2-YFP reporter; test: fraction of reporter-positive cells with nuclear (nucleolar or nucleolar/nucleoplasmic) RPS2-YFP (MainHitrate); higher = more cells with nucleolar/nuclear readout signal (for ENP1 -LMB: less RNAPI inhibition; for +LMB ENP1 and RP reporters: stronger nuclear/nucleolar retention, i.e. ribosome biogenesis defect); settings: concentration: 1 µM; treatment time: 6 h
[4] = tested on: HeLa RPL29-GFP reporter; test: fraction of reporter-positive cells with nuclear (nucleolar or nucleolar/nucleoplasmic) RPL29-GFP (MainHitrate); higher = more cells with nucleolar/nuclear readout signal (for ENP1 -LMB: less RNAPI inhibition; for +LMB ENP1 and RP reporters: stronger nuclear/nucleolar retention, i.e. ribosome biogenesis defect); settings: concentration: 1 µM; treatment time: 6 h

CCC(CC)[C@H](NC(C)=O)[C@@H]1[C@H](O)[C@@H](C(=O)O)C[C@H]1NC(=N)N [Peramivir Trihydrate]
fraction [1]: 0.15 ± 0.17 | fraction [2]: 0.976 ± 0.041 | fraction of reporter-positive cells with nuclear [3]: 0.113 ± 0.079 | fraction of reporter-positive cells with nuclear [4]: 0.208 ± 0.061

C[C@H]1c2cccc(O)c2C(=O)C2=C(O)[C@]3(O)C(=O)C(C(N)=O)=C(O)[C@@H](N(C)C)[C@@H]3[C@@H](O)[C@@H]21 [Doxycycline HCl]
fraction [1]: 0.0871 ± 0.12 | fraction [2]: 0.99 ± 0.017 | fraction of reporter-positive cells with nuclear [3]: 0.139 ± 0.11 | fraction of reporter-positive cells with nuclear [4]: 0.255 ± 0.11

CCc1c2c(nc3ccc(OC(=O)N4CCC(N5CCCCC5)CC4)cc13)-c1cc3c(c(=O)n1C2)COC(=O)[C@]3(O)CC [Irinotecan]
fraction [1]: 0.111 ± 0.1 | fraction [2]: 0.9971 ± 0.0051 | fraction of reporter-positive cells with nuclear [3]: 0.0967 ± 0.052 | fraction of reporter-positive cells with nuclear [4]: 0.204 ± 0.069

CN1CCC(=C2c3ccccc3CCc3sccc32)CC1 [Pizotifen malate]
fraction [1]: 0.127 ± 0.11 | fraction [2]: 0.9981 ± 0.0033 | fraction of reporter-positive cells with nuclear [3]: 0.136 ± 0.083 | fraction of reporter-positive cells with nuclear [4]: 0.199 ± 0.085

O=NO [Sodium nitrite]
fraction [1]: 0.14 ± 0.21 | fraction [2]: 0.987 ± 0.023 | fraction of reporter-positive cells with nuclear [3]: 0.124 ± 0.12 | fraction of reporter-positive cells with nuclear [4]: 0.202 ± 0.063

COc1ccc(-c2ccc3cc(C(=O)O)ccc3c2)cc1C12CC3CC(CC(C3)C1)C2 [Adapalene]
fraction [1]: 0.113 ± 0.14 | fraction [2]: 0.9981 ± 0.0034 | fraction of reporter-positive cells with nuclear [3]: 0.119 ± 0.088 | fraction of reporter-positive cells with nuclear [4]: 0.225 ± 0.069

CNC1CCCN(c2c(F)cc3c(=O)c(C(=O)O)cn(C4CC4)c3c2OC)C1 (stereo not given) [Balofloxacin]
fraction [1]: 0.118 ± 0.17 | fraction [2]: 0.987 ± 0.023 | fraction of reporter-positive cells with nuclear [3]: 0.113 ± 0.069 | fraction of reporter-positive cells with nuclear [4]: 0.228 ± 0.06

Cc1cnc(C(=O)O)c[n+]1[O-] [Acipimox]
fraction [1]: 0.0588 ± 0.074 | fraction [2]: 0.9966 ± 0.0059 | fraction of reporter-positive cells with nuclear [3]: 0.0729 ± 0.049 | fraction of reporter-positive cells with nuclear [4]: 0.265 ± 0.092

CC1=C(CC(=O)O)c2cc(F)ccc2/C1=C\c1ccc([S+](C)[O-])cc1 (stereo not given) [Sulindac (Clinoril)]
fraction [1]: 0.0905 ± 0.12 | fraction [2]: 0.993 ± 0.012 | fraction of reporter-positive cells with nuclear [3]: 0.0956 ± 0.032 | fraction of reporter-positive cells with nuclear [4]: 0.225 ± 0.083

COC(=O)[C@H](Cc1ccccc1)NC(=O)[C@@H](N)CC(=O)O [Aspartame]
fraction [1]: 0.125 ± 0.19 | fraction [2]: 0.991 ± 0.016 | fraction of reporter-positive cells with nuclear [3]: 0.0903 ± 0.049 | fraction of reporter-positive cells with nuclear [4]: 0.224 ± 0.077
